Source: publication PMC10617780
Results are given in words; binding and its absence hold for the method and conditions named. In cells and extracts the contact can be indirect.

Protein sequences, listed by entry. Tags and fused reporters are not part of them.
UniProt P40123: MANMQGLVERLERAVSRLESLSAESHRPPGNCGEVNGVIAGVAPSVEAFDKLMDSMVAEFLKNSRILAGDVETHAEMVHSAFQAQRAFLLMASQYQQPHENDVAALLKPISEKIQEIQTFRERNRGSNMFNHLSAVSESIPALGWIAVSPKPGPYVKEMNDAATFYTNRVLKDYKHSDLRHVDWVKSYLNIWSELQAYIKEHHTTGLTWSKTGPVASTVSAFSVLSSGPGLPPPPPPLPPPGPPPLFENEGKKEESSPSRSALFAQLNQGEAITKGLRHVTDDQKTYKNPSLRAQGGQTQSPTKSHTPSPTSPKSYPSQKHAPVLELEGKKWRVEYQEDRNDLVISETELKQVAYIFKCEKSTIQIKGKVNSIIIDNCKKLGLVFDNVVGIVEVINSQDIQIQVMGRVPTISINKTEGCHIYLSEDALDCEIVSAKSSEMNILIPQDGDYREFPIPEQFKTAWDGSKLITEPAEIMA
UniProt P04406: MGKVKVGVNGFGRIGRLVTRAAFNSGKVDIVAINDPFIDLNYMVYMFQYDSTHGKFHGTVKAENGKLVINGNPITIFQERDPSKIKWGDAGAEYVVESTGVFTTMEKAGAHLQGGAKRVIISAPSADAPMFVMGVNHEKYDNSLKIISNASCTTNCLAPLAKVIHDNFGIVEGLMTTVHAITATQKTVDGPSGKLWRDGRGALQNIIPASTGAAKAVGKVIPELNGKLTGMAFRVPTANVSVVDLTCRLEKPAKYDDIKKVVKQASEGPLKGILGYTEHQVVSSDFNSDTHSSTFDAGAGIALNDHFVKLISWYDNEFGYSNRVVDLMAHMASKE
UniProt P06733: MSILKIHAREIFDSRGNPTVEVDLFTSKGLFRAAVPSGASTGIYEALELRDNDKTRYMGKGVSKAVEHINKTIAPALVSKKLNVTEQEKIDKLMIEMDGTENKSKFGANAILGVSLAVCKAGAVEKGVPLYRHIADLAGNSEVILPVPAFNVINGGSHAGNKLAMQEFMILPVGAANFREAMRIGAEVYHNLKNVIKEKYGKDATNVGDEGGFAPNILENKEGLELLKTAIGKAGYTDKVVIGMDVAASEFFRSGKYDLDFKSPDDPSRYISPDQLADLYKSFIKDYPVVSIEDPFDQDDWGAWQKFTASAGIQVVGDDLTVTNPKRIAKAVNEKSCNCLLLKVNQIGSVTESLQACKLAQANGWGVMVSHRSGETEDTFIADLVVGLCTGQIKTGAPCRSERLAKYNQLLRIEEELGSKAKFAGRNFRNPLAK
UniProt P07355: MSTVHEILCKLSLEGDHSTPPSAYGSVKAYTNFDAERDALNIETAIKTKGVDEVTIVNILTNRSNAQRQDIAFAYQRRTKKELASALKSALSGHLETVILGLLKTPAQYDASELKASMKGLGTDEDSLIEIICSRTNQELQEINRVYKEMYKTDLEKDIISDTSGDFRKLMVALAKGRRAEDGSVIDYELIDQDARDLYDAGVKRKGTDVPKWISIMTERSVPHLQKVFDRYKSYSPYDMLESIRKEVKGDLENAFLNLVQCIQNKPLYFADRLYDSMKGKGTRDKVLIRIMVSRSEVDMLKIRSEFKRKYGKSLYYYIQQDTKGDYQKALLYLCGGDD

B1: malate dehydrogenase 2, endogenous (protein, UniProt P40926 25-338)
chain: AKVAVLGASGGIGQPLSLLLKNSPLVSRLTLYDIAHTPGVAADLSHIETKAAVKGYLGPEQLPDCLKGCDVVVIPAGVPRKPGMTRDDLFNTNATIVATLTAACAQHCPEAMICVIANPVNSTIPITAEVFKKHGVYNPNKIFGVTTLDIVRANTFVAELKGLDPARVNVPVIGGHAGKTIIPLISQCTPKVDFPQDQLTALTGRIQEAGTEVVKAKAGAGSATLSMAYAGARFVFSLVDAMNGKEGVVECSFVKSQETECTYFSTPLLLGKKGIEKNLGIGKVSSFEEKMISDAIPELKASIKKGEDFVKTLK
B2: annexin A1, endogenous (protein, UniProt P04083 1-346)
chain: MAMVSEFLKQAWFIENEEQEYVQTVKSSKGGPGSAVSPYPTFNPSSDVAALHKAIMVKGVDEATIIDILTKRNNAQRQQIKAAYLQETGKPLDETLKKALTGHLEEVVLALLKTPAQFDADELRAAMKGLGTDEDTLIEILASRTNKEIRDINRVYREELKRDLAKDITSDTSGDFRNALLSLAKGDRSEDFGVNEDLADSDARALYEAGERRKGTDVNVFNTILTTRSYPQLRRVFQKYTKYSKHDMNKVLDLELKGDIEKCLTAIVKCATSKPAFFAEKLHQAMKGVGTRHKALIRIMVSRSEIDMNDIKAFYQKMYGISLCQAILDETKGDYEKILVALCGGN

Target: cyclase-associated protein 2 (CAP2), endogenous (human (endogenous in MKN45)) (UniProt P40123)
Test: co-IP; endogenous proteins, cell lysates immunoprecipitated with anti-CAP2 or IgG, Western blot

binding, no binding:
GAPDH, endogenous (from UniProt P04406 1-335)
enolase 1, endogenous (from UniProt P06733 1-434)
ANXA2, endogenous (from UniProt P07355 1-339)
B1
B2
